Here are results for 42 molecules from the supplement of paper PMC6331611.

The test has as its system Salmonella enterica serovar Typhimurium SL1344. The test is described as follows: normalized intracellular growth (luminescence, IQM-normalized) in RAW264.7 macrophages (fraction of plate interquartile mean); higher = more bacterial growth (less inhibition). To be noted: 10 µM.

± gives the standard deviation of the averaged measurements. The full ranking holds about 1,600 compounds; the median of “normalized intracellular growth (luminescence, IQM-normalized) in RAW264.7 macrophages” is about 1, and the lowest 2% start at about 0.43. The list shows a part of the results.

For the molecule `CC(=O)O[C@H]1C[C@H](O[C@H]2[C@@H](O)C[C@H](O[C@H]3[C@@H](O)C[C@H](O[C@H]4CC[C@@]5(C)[C@H](CC[C@@H]6[C@@H]5C[C@@H](O)[C@]5(C)[C@@H](C7=CC(=O)OC7)CC[C@]65O)C4)O[C@@H]3C)O[C@@H]2C)O[C@H](C)[C@H]1O[C@@H]1O[C@H](CO)[C@@H](O)[C@H](O)[C@H]1O`, the normalized intracellular growth was 0.935 ± 0.04 (time point: T3 (3 h)) and 1.09 ± 0.086 (time point: Tfinal (~6 h)).

In turn, `CCN1C[C@]2(COC)[C@H](O)C[C@H](OC)[C@@]34[C@@H]5C[C@@]6(O)[C@H](OC(=O)c7ccccc7)[C@@H]5[C@@](OC(C)=O)([C@@H]([C@H](OC)[C@H]23)[C@@H]14)[C@@H](O)[C@@H]6OC` displayed a normalized intracellular growth (time point: T3 (3 h)) of 0.971 ± 0.025 and a normalized intracellular growth (time point: Tfinal (~6 h)) of 0.837 ± 0.045.

Consider `O=[N+]([O-])c1cc([As](=O)(O)O)ccc1O`, for which the normalized intracellular growth reads like this: (time point: T3 (3 h)) 0.97 ± 0.025; (time point: Tfinal (~6 h)) 0.915 ± 0.15.

In the case of `COc1ccc(O)c(C(C)(C)C)c1.COc1ccc(O)cc1C(C)(C)C`, the normalized intracellular growth is, setting by setting: (time point: T3 (3 h)) 0.982 ± 0.05; (time point: Tfinal (~6 h)) 0.941 ± 0.028.

Regarding `C[C@]12CC[C@@H]3c4ccc(OC(=O)N(CCCl)CCCl)cc4CC[C@H]3[C@@H]1CC[C@@H]2O`, the normalized intracellular growth is 0.99 ± 0.045 (time point: T3 (3 h)) and 1.17 ± 0.083 (time point: Tfinal (~6 h)).

With `[N-]=[N+]=CC(=O)OC[C@H](N)C(=O)O`, the normalized intracellular growth reads like this: (time point: T3 (3 h)) 0.882 ± 0.029; (time point: Tfinal (~6 h)) 1.03 ± 0.032.

Regarding `N=C1NC(=O)N2CC12` (centres undefined), the normalized intracellular growth reads like this: (time point: T3 (3 h)) 1.051 ± 0.0073; (time point: Tfinal (~6 h)) 0.853 ± 0.12.

Consider `C[C@@H]1O[C@@H](O[C@H]2C[C@@H](O)[C@]3(CO)[C@H]4[C@H](O)C[C@]5(C)[C@@H](C6=CC(=O)OC6)CC[C@]5(O)[C@@H]4CC[C@]3(O)C2)[C@H](O)[C@H](O)[C@H]1O`, for which the normalized intracellular growth is, setting by setting: (time point: T3 (3 h)) 1.01 ± 0.012; (time point: Tfinal (~6 h)) 0.991 ± 0.034.

For `CCC1(c2ccc(N)cc2)CCC(=O)NC1=O` (centres undefined), the normalized intracellular growth came to 0.974 ± 0.021 (time point: T3 (3 h)) and 1.07 ± 0.055 (time point: Tfinal (~6 h)).

For `CCN(C)C(=O)Oc1cccc([C@H](C)N(C)C)c1`, the normalized intracellular growth by setting is: (time point: T3 (3 h)) 1.01 ± 0.022; (time point: Tfinal (~6 h)) 0.504 ± 0.27.

`CC[C@@H](c1cccc(O)c1)[C@@H](C)CN(C)C` had a normalized intracellular growth (time point: T3 (3 h)) of 1.09 ± 0.081 and a normalized intracellular growth (time point: Tfinal (~6 h)) of 0.708 ± 0.38.

As to `CN(C)C(=O)Oc1cc(OC(=O)N(C)C)cc(C(O)CNC(C)(C)C)c1` (centres undefined), the normalized intracellular growth by setting is: (time point: T3 (3 h)) 0.943 ± 0.049; (time point: Tfinal (~6 h)) 0.833 ± 0.14.

For the molecule `CCn1cc(C(=O)O)c(=O)c2cc3c(cc21)OCO3`, the normalized intracellular growth runs as follows: (time point: T3 (3 h)) 0.923 ± 0.032; (time point: Tfinal (~6 h)) 0.192 ± 0.011.

Regarding `C[N+]1(C)[C@@H]2C[C@@H](OC(=O)[C@H](CO)c3ccccc3)C[C@H]1[C@@H]1O[C@@H]12`, the normalized intracellular growth (time point: T3 (3 h)) was determined as 1.02 ± 0.041 and the normalized intracellular growth (time point: Tfinal (~6 h)) was found to be 1.15 ± 0.05.

`C#CC(C)(O)CC` (centres undefined) yielded a normalized intracellular growth (time point: T3 (3 h)) of 0.971 ± 0.038 and a normalized intracellular growth (time point: Tfinal (~6 h)) of 0.758 ± 0.24.

As for `C[N+]1(C)CCCC(OC(=O)C(O)(c2ccccc2)c2ccccc2)C1` (centres undefined), the normalized intracellular growth reads like this: (time point: T3 (3 h)) 1.03 ± 0.032; (time point: Tfinal (~6 h)) 0.939 ± 0.09.

With `N[C@@H]1C[C@H]1c1ccccc1.N[C@H]1C[C@@H]1c1ccccc1`, the normalized intracellular growth reads like this: (time point: T3 (3 h)) 0.984 ± 0.028; (time point: Tfinal (~6 h)) 1.01 ± 0.045.

Take `Oc1ccc(Cl)cc1Cc1cc(Cl)ccc1O`: the normalized intracellular growth by setting is: (time point: T3 (3 h)) 1.03 ± 0.02; (time point: Tfinal (~6 h)) 0.859 ± 0.13.

As for `CC(O)CN1CCN(CC(=O)[O-])CCN(CC(=O)[O-])CCN(CC(=O)[O-])CC1.[Gd+3]` (centres undefined), the normalized intracellular growth is 0.946 ± 0.083 (time point: T3 (3 h)) and 1.23 ± 0.098 (time point: Tfinal (~6 h)).

As for `CCCC(C)(COC(N)=O)COC(=O)NC(C)C` (centres undefined), the normalized intracellular growth runs as follows: (time point: T3 (3 h)) 1.02 ± 0.029; (time point: Tfinal (~6 h)) 0.918 ± 0.025.

Regarding `COC(C)(C)CCC[C@H](C)C/C=C/C(C)=C/C(=O)OC(C)C`, the normalized intracellular growth amounted to 1.02 ± 0.024 (time point: T3 (3 h)) and 0.902 ± 0.27 (time point: Tfinal (~6 h)).

Molecule `COc1ccc(OC)c(C(O)C(C)N)c1` (centres undefined) registered a normalized intracellular growth (time point: T3 (3 h)) of 1.11 ± 0.087 and a normalized intracellular growth (time point: Tfinal (~6 h)) of 0.961 ± 0.058.

For `CC([C@H](O)c1ccccc1)N(C)C` (some centres undefined), the normalized intracellular growth is 0.977 ± 0.096 (time point: T3 (3 h)) and 1.08 ± 0.12 (time point: Tfinal (~6 h)).

With `CCC(=O)O[C@H]1CC[C@H]2[C@@H]3CCC4=CC(=O)CC[C@]4(C)[C@H]3CC[C@]12C`, the normalized intracellular growth came to 0.96 ± 0.038 (time point: T3 (3 h)) and 1.12 ± 0.042 (time point: Tfinal (~6 h)).

Regarding `CCC1(CC)C(=O)NC(=O)NC1=O`, the normalized intracellular growth by setting is: (time point: T3 (3 h)) 0.979 ± 0.094; (time point: Tfinal (~6 h)) 0.778 ± 0.078.

Regarding `O=C1CCO1`, the normalized intracellular growth is 0.995 ± 0.052 (time point: T3 (3 h)) and 0.884 ± 0.13 (time point: Tfinal (~6 h)).

As to `c1ccc2c(c1)sc1ccccc12`, the normalized intracellular growth is, setting by setting: (time point: T3 (3 h)) 1.03 ± 0.065; (time point: Tfinal (~6 h)) 0.916 ± 0.1.

`O=P1(N(CCCl)CCCl)NCCCO1` (centres undefined): the normalized intracellular growth (time point: T3 (3 h)) came to 1 ± 0.031 and the normalized intracellular growth (time point: Tfinal (~6 h)) stood at 0.925 ± 0.072.

`CN1C(=O)CCS(=O)(=O)C1c1ccc(Cl)cc1` (centres undefined): the normalized intracellular growth (time point: T3 (3 h)) worked out at 1.02 ± 0.056 and the normalized intracellular growth (time point: Tfinal (~6 h)) was found to be 0.864 ± 0.13.

Regarding `CC(=O)NC1CCSC1=O` (centres undefined), the normalized intracellular growth runs as follows: (time point: T3 (3 h)) 1.05 ± 0.023; (time point: Tfinal (~6 h)) 1.13 ± 0.094.

As to `CNC(=O)Oc1ccccc1OC(C)C`, the normalized intracellular growth runs as follows: (time point: T3 (3 h)) 1.02 ± 0.052; (time point: Tfinal (~6 h)) 1.01 ± 0.13.

`C=CCC1(C(C)CCC)C(=O)NC(=S)NC1=O` (centres undefined): the normalized intracellular growth was 0.956 ± 0.066 (time point: T3 (3 h)) and 0.965 ± 0.1 (time point: Tfinal (~6 h)).

Turning to `CCCCCCCCCCCCCCCC[n+]1ccccc1`, the normalized intracellular growth is, setting by setting: (time point: T3 (3 h)) 1.121 ± 0.0093; (time point: Tfinal (~6 h)) 1.31 ± 0.11.

As for `CCOP(=S)(OCC)Oc1nc(Cl)c(Cl)cc1Cl`, the normalized intracellular growth is, setting by setting: (time point: T3 (3 h)) 1.03 ± 0.054; (time point: Tfinal (~6 h)) 0.764 ± 0.061.

With `CCOc1cc(C=O)ccc1O`, the normalized intracellular growth is, setting by setting: (time point: T3 (3 h)) 0.976 ± 0.037; (time point: Tfinal (~6 h)) 0.93 ± 0.11.

Take `C=C1C[C@@H]2[C@H](CC[C@]3(C)C(=O)CC[C@@H]23)[C@@]2(C)C=CC(=O)C=C12`: the normalized intracellular growth (time point: T3 (3 h)) was 1 ± 0.047 and the normalized intracellular growth (time point: Tfinal (~6 h)) turned out to be 1.05 ± 0.07.

`NP(N)(=O)NC(=O)c1ccc(F)cc1`: the normalized intracellular growth (time point: T3 (3 h)) was found to be 1.09 ± 0.025 and the normalized intracellular growth (time point: Tfinal (~6 h)) is 1.04 ± 0.11.

In the case of `CN1CCc2cc3c(cc2C1O)OCO3` (centres undefined), the normalized intracellular growth was 1.11 ± 0.075 (time point: T3 (3 h)) and 0.972 ± 0.2 (time point: Tfinal (~6 h)).

Regarding `COc1ccc(C(CN(C)C)C2(O)CCCCC2)cc1` (centres undefined), the normalized intracellular growth runs as follows: (time point: T3 (3 h)) 1.01 ± 0.029; (time point: Tfinal (~6 h)) 0.758 ± 0.24.

On to `CNC(=O)Oc1ccc2c(c1)[C@]1(C)CCN(C)[C@@H]1N2C`, for which the normalized intracellular growth came out at 0.728 ± 0.068 (time point: T3 (3 h)) and 0.913 ± 0.051 (time point: Tfinal (~6 h)).

`CN(C)C(=O)Oc1cccc([N+](C)(C)C)c1`: the normalized intracellular growth reads like this: (time point: T3 (3 h)) 0.998 ± 0.041; (time point: Tfinal (~6 h)) 0.93 ± 0.015.

Regarding `CN1[C@H]2C[C@H](OC(=O)[C@H](CO)c3ccccc3)C[C@@H]1[C@@H](O)C2`, the normalized intracellular growth runs as follows: (time point: T3 (3 h)) 1.01 ± 0.025; (time point: Tfinal (~6 h)) 0.993 ± 0.025.
